The other results are listed elsewhere or left out.
What follows are sequences tested against T1, OsSMF1 (Oryza sativa, UniProt Q6ZLB0 1-436) (assay: protein-binding microarray (RPBM); PBS, 2% BSA, 51.3 ng/ul salmon testes DNA, 50 uM zinc acetate, 200 nM TF, 25 C, 1 h; high values mean tight binding). Settings: protein: recombinant; tags: N-terminal polyhistidine and DsRed monomer fusion (pET32a); chain copies: 2; label: CyDye5-dUTP incorporated in the synthesized complementary strand; 3' TTTTT single-stranded linker to array surface; dsDNA, one strand shown.
T1 sequence: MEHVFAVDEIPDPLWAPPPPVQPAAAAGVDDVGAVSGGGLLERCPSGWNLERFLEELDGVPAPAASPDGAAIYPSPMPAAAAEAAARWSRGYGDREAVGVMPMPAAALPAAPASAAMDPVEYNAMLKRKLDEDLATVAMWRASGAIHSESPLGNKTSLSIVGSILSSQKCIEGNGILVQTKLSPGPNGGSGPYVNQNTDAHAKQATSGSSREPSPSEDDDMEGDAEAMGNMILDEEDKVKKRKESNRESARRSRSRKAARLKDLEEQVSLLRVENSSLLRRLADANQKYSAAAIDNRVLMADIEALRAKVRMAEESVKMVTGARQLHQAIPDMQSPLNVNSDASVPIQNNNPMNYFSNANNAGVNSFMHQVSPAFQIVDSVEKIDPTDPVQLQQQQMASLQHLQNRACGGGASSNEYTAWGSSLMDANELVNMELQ
In short: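 Ni–NTA purification followed expression in E. coli BL21-CodonPlus of transcription factors fused N-terminally to a polyhistidine tag and DsRed. At 200 nM in PBS with 2% BSA, salmon testes DNA and 50 µM zinc acetate, the protein was incubated for 1 h at 25 °C with a custom Agilent array that had been primer-extended with Cy5-dUTP and blocked with 2% BSA. After washing, the array was read on an Axon 4000B scanner. The binding signal is per-feature fluorescence intensity in arbitrary units.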

Sequence	binding signal
TAGACTGCAGTTGGTGATTGGACCACCAATCGCTTGCTTGCGGAGTCACCTAGTGCAG	4100 fluorescence intensity (a.u.)
GAAAATAATTGTCGTACACTCGCAGCTATATTTGTTATTTCGGAGTCACCTAGTGCAG	3320 fluorescence intensity (a.u.)
ACCTAGTACCGGATATGACACATTCTATTACTACGAATTTCGGAGTCACCTAGTGCAG	3690 fluorescence intensity (a.u.)
AAATTTGATCCTCGCACACCAGCTCAGCTACAGATGACATCGGAGTCACCTAGTGCAG	4230 fluorescence intensity (a.u.)
CCATTGATAAGGGCCACGAATCCTGTTTCCTTCATGAGAACGGAGTCACCTAGTGCAG	3280 fluorescence intensity (a.u.)
TATTATCATATCACTGTTCTTTGAGGATGACGAACAAATCCGGAGTCACCTAGTGCAG	3660 fluorescence intensity (a.u.)
TGCCAGATCCGTGCCGGATCTGGCGGATCTGGCGGGGAGGCGGAGTCACCTAGTGCAG	3860 fluorescence intensity (a.u.)
GCGCCCAACCATATCTCAGTTAATGAGACATTATAGTTTCCGGAGTCACCTAGTGCAG	18200 fluorescence intensity (a.u.)
CGTACAGAGAGAGATGCCATTTCTGTCACCTGGCAACGTCCGGAGTCACCTAGTGCAG	3270 fluorescence intensity (a.u.)
CCCACCCCACCACCCACCGGCCCCACACGTCAGCTATACACGGAGTCACCTAGTGCAG	13600 fluorescence intensity (a.u.)
TGGGGATCAAATTTATGACGTGACGATCGAGATCGGAGAGCGGAGTCACCTAGTGCAG	5670 fluorescence intensity (a.u.)
GAAGATCCGGGCGTCAGCAGTGACAACCCTCTCTCGTCGTCGGAGTCACCTAGTGCAG	8390 fluorescence intensity (a.u.)
AGAGTACGTAAGGCCGTTGCCGTCAAATTGTTTGACAGAACGGAGTCACCTAGTGCAG	3140 fluorescence intensity (a.u.)
GATCTACGATCTGCGAGCTCAGCACTGCACGTTGTAGCCACGGAGTCACCTAGTGCAG	3350 fluorescence intensity (a.u.)
CATTATTGTTTTATTATCGTGACACATGTTGTTCTCATAACGGAGTCACCTAGTGCAG	3230 fluorescence intensity (a.u.)
CCCCACGACCACCGCCTCATTGGTCCACATAAGCCGCAGCCGGAGTCACCTAGTGCAG	3610 fluorescence intensity (a.u.)
TTGCAACCTCCGACAACGGCGTTGTCAGTGTCAACAGCGGCGGAGTCACCTAGTGCAG	4290 fluorescence intensity (a.u.)
ACACTAGGCCCAAGGCAAGCCCACCACTCGTGCTCGTAACCGGAGTCACCTAGTGCAG	3190 fluorescence intensity (a.u.)
TGAACACGAACGCGACGCTTCTTCTGTCACGTACGCCCGTCGGAGTCACCTAGTGCAG	3200 fluorescence intensity (a.u.)
GAAGGCGGCGGGGTGGCGAAGTGGCGAGGAGGAGACGGGGCGGAGTCACCTAGTGCAG	4910 fluorescence intensity (a.u.)
CTACATCGGCGAGCTCGGGGACACGTTCGCCGGGCTGTGGCGGAGTCACCTAGTGCAG	3840 fluorescence intensity (a.u.)
TGAGGGCCGCCACGTCCTCATGGCCTCCGCCCCATCGGAGCGGAGTCACCTAGTGCAG	7660 fluorescence intensity (a.u.)
CCAGCCCAGCCCAGCCCATGTCGTGTCGTCTTCCCCAGTCCGGAGTCACCTAGTGCAG	3960 fluorescence intensity (a.u.)
CCGAATGCATGGAAGTGATCAAGTGAACTAGAGGCAGAGGCGGAGTCACCTAGTGCAG	25500 fluorescence intensity (a.u.)
CCCCAGAAAGTCCCCATATTTCTAGGAACTTCCGTTCTAGCGGAGTCACCTAGTGCAG	13900 fluorescence intensity (a.u.)
TGCACACCCTATCCCGAAATACACATCACGCTCACGGGGCCGGAGTCACCTAGTGCAG	5630 fluorescence intensity (a.u.)
ATCAGGATGCCTCAGGCGAGCCACGTGACCACGTCTGATGCGGAGTCACCTAGTGCAG	6150 fluorescence intensity (a.u.)

Sequence	binding signal
GTGGTCCCCAGATGTCATACATCCATGCTAGCTTGCTCCGCGGAGTCACCTAGTGCAG	5090 fluorescence intensity (a.u.)
GTAATTATTGCTAGTGGGTGATGATGTGGCATGGTTGCATCGGAGTCACCTAGTGCAG	25200 fluorescence intensity (a.u.)
ACAAGGCATTGGTATCTGACGAGGTCTCTTGCCGTGTAGTCGGAGTCACCTAGTGCAG	3420 fluorescence intensity (a.u.)
GGCGGCGGCGTCAGCGGGCACGTGGGCGATGGTGGTGCACCGGAGTCACCTAGTGCAG	4070 fluorescence intensity (a.u.)
ACCGTAGCATAATTACAACTGACGCGTGAGTTGTCTGGATCGGAGTCACCTAGTGCAG	4920 fluorescence intensity (a.u.)
ATTAGGATGTGACGTGTGTACGTGTAGTGATTATGCATAACGGAGTCACCTAGTGCAG	9190 fluorescence intensity (a.u.)
TACGGTGGTAGGAGAGGCCACGTGTGCGTCCCAGCAAGTGCGGAGTCACCTAGTGCAG	7820 fluorescence intensity (a.u.)
CAGCACCAACAGCCACTCCTCCGGGCACGTCTACTCCGACCGGAGTCACCTAGTGCAG	28300 fluorescence intensity (a.u.)
TTAATAATATTGTTGATATTCAATCTATTATTCAACATTTCGGAGTCACCTAGTGCAG	23900 fluorescence intensity (a.u.)
TGTTGGACACGGCCCATAAGGTGGAATCATGCTGGGCCTGCGGAGTCACCTAGTGCAG	20200 fluorescence intensity (a.u.)
ATCGTCGAGGCTGAGGACGGTGACGAGGAATGGAAGGAGCCGGAGTCACCTAGTGCAG	3780 fluorescence intensity (a.u.)
ATCAGACCATATGTGACTCACTGCCTCACCCTAGCTTAGTCGGAGTCACCTAGTGCAG	8180 fluorescence intensity (a.u.)
TCCGTCGAAGCAGTTTACCGTTGGTGATTCATTCAGCGATCGGAGTCACCTAGTGCAG	3870 fluorescence intensity (a.u.)
ACAGCTCTCTCAGATCCAAAGCCGTGGAGAAATCGCGCGACGGAGTCACCTAGTGCAG	23700 fluorescence intensity (a.u.)
GTGGGGCGATCAAGCGGCGACTGCTCCGGCGAAGCGGCCCCGGAGTCACCTAGTGCAG	3280 fluorescence intensity (a.u.)
TCGAGGTGGGAGCGGCGGTGACGGCATCAGCGCGCGGTGGCGGAGTCACCTAGTGCAG	3350 fluorescence intensity (a.u.)
AATGTGACAACCCATCATTTCACCGACTAAACGAGCCCTCCGGAGTCACCTAGTGCAG	3560 fluorescence intensity (a.u.)
TAGCGACATACACGTAAGTACGTTACCAGATACAGCCCAGCGGAGTCACCTAGTGCAG	7240 fluorescence intensity (a.u.)
CTTTTAAGAACAGGTTGATATGACTACATCTCTTTCAGCACGGAGTCACCTAGTGCAG	3370 fluorescence intensity (a.u.)
ATAAGACATCGTTCTCTGCATGACGCGTGCGTCGATCGATCGGAGTCACCTAGTGCAG	4990 fluorescence intensity (a.u.)
GCCGCACTATAAATTAGTCATGCACAGTTGCATCCATGGCCGGAGTCACCTAGTGCAG	4560 fluorescence intensity (a.u.)
CAACGCGTAGCGTCAGCCAGACGAACCAGAGTCTACTGTACGGAGTCACCTAGTGCAG	3810 fluorescence intensity (a.u.)
TCAGATCAATCTCCCTCCGTCGCCAACATCACCTTGTTTGCGGAGTCACCTAGTGCAG	3960 fluorescence intensity (a.u.)
TACTCCAATTTCTGTGCTTATCACTGCTTCAGTGTTTGCCCGGAGTCACCTAGTGCAG	10700 fluorescence intensity (a.u.)
GTAACTTATATATACGATAAAAGTAACTTACACATATAATCGGAGTCACCTAGTGCAG	16700 fluorescence intensity (a.u.)
AAAGGCTAGTCGCTACCTCATCAGCATCAGTTACAGCTTCCGGAGTCACCTAGTGCAG	3590 fluorescence intensity (a.u.)
TGCCAAGTCGCCGGTGCCTTGTCAATCAAGCTCCAGGTGGCGGAGTCACCTAGTGCAG	4160 fluorescence intensity (a.u.)

Exported in CSV form: part of the list above
Sequence,binding signal
TTAATAATATTGTTGATATTCAATCTATTATTCAACATTTCGGAGTCACCTAGTGCAG,23900 fluorescence intensity (a.u.)
TGTTGGACACGGCCCATAAGGTGGAATCATGCTGGGCCTGCGGAGTCACCTAGTGCAG,20200 fluorescence intensity (a.u.)
TACTCCAATTTCTGTGCTTATCACTGCTTCAGTGTTTGCCCGGAGTCACCTAGTGCAG,10700 fluorescence intensity (a.u.)
GTAACTTATATATACGATAAAAGTAACTTACACATATAATCGGAGTCACCTAGTGCAG,16700 fluorescence intensity (a.u.)
